Here are results for one molecule from PMC13185310, “A versatile nanobody platform for live and super-resolution imaging of synaptic vesicle dynamics and plasticity in rodent and human neurons” (Journal of Nanobiotechnology, 2026).

By UniProt entry, the sequences of proteins in these tests, tags left out.
UniProt P21707: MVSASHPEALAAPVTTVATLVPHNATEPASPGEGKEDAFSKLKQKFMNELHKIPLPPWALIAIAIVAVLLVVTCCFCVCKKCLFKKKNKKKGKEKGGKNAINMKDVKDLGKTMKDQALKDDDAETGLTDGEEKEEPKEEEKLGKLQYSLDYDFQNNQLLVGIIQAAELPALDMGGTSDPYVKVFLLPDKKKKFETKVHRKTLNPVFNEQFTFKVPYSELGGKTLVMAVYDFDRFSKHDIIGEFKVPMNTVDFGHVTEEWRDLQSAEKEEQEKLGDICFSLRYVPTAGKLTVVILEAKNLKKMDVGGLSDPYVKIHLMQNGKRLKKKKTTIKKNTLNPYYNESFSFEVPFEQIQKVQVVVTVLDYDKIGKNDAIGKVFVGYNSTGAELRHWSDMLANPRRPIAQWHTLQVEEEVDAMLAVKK

No constants are given. Whether binding was seen depends on the method and setting. In cells and extracts the contact can be indirect. Some entries that bind do so weakly or less than the wild type.

The target of the test is endogenous Synaptotagmin 1 of primary hippocampal neurons (proximity labelling and PLA) (rat (endogenous in primary hippocampal neurons)) (UniProt P21707). In words: proximity ligation; in situ PLA (Duolink) in primary hippocampal neurons with mouse anti-Syt1 luminal and rabbit anti-CNTFRα antibodies applied live (40 min, 37 °C); control: anti-ribeye; also after TTX (3 µM, 2 h; signal decreased) or Cntf (8 nM, 2 h; signal unchanged).

B1: ciliary neurotrophic factor receptor (Cntfr) (receptor, UniProt Q08406 23-342)
chain: QKHSPQEAPHVQYERLGTDVTLPCGTASWDAAVTWRVNGTDLAPDLLNGSQLILRSLELGHSGLYACFHRDSWHLRHQVLLHVGLPPREPVLSCRSNTYPKGFYCSWHLSAPTYIPNTFNVTVLHGSKMMVCEKDPALKNRCHIRYMHLFSTIKYKVSISVSNALGHNTTAITFDEFTIVKPDPPENVVARPVPSNPRRLEVTWQTPSTWPDPESFPLKFFLRYRPLILDQWQHVELSNGTAHTITDAYAGKEYIIQVAAKDNEIGTWSDWSVAAHATPWTEEPRHLTTEAQAPETTTSTTSSLAPPPTTKICDPGELSS
Take B1: the binding result is listed as “binds”.
